This note sets out measurements from patent US6887878B2, “KMST isoeugenol derivatives and pharmaceutical activity” (Ing-Jun Chen, priority 2003, dated 2005).

The structures appear in SMILES notation.

For this assay, the system named is lipid peroxidation in rat brain homogenate. Description: lipid peroxidation initiated by Fe2+-ascorbic acid in rat brain homogenates (TBARS). The format is biochemical. Particulars: read-out: IC50 inhibiting lipid peroxidation initiated by Fe2+-ascorbic acid. As for the experimental part:
Rat brain homogenate was made in 0.9% saline containing 10 mg tissue/ml. The rates of membrane lipid peroxidation were measured by the formation of thiobarbituric acid (TBA)-reactive substance (TBARS). Rat brain homogenates (1 ml) were incubated at 37° C. for 5 min with 10 μl of test compound or vehicle. Lipid peroxidation was initiated by the addition of 0.1 ml of 0.25 mM FeCl2 and 1 mM ascorbic acid (Huang Y C. et al., Drug. Dev. Res., 47:77-89, 1999). After 30 min of incubation, the reaction was stopped by adding 0.1 ml of 0.2% BHT. TBA reagent was then added and the mixture was heated for 30 min in a boiling water bath. TBARS was extracted by n-butanol and measured at 532 nm. The amount of TBARS was quantified using the linear regression obtained from malondialdehyde (MDA) standards.

Consider `O=c1n(CCCN2CCN(c3cccc(Cl)c3)CC2)nc2ccccn12` [Trazodone], for which the IC50 is 60.6 ± 0.76 µM.

The IC50 is the midpoint of a concentration-inhibition curve.
